The record followed here is PubChem BioAssay AID328 (DTP/NCI, 2004).

The list shows only some results of the screen, not a fair sample: it is rich in T/C values a quarter to a half above the control, in often repeated tests (any T/C) and in doses without a T/C. Other doses and runs of a compound stand elsewhere. T/C is the treated group as % of the vehicle group. Some doses have a count of surviving animals in place of a T/C: the source files T/C as zero there, which appears to mark a toxic dose or a test without result, not a measured value. Some survivor counts are full or nearly so, which does not show that the dose was tolerated: survival well below the control is almost never listed, so the zero probably covers shortened survival too. Counts of survivors are from the toxicity check (mostly the fifth day) where no day follows; animals may have died later. Schedule codes are those of the source, read here as Q, the interval in days (D) or hours (H), X, the number of doses. Some doses were run more than once; the results are listed from low to high. Where survival is the endpoint, this PubChem deposit counts one and a half times the control or more as active, and values a quarter to a half above the control carry no call in these data; other NCI protocols may use other cut-offs. Some T/C values are followed by the survivors on the day toxicity was checked, most often the fifth; where none is given, no animal had died by that day.

In the assay the test system is BDF1 mice, P388 leukemia ip, median survival T/C. As to the kind of experiment: NCI In Vivo Anticancer Drug Screen. Data for tumor model P388 Leukemia (intraperitoneal) in B6D2F1 (BDF1) mice. The note with it: T/C endpoint: median survival time, higher T/C = longer survival. An outline of the steps:
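Reported as T/C, where T is the survival measurement in dosed animals and C the same measurement in vehicle controls.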

The mark [1] stands for this setting: dose: 200.0 mg/kg/injection, schedule: Q04DX003 (ip), vehicle: Klucel (hydroxypropylcellulose) (HPC).
Setting [2] is: dose: 200.0 mg/kg/injection, schedule: Q01DX009 (ip), vehicle: saline with Tween-80.
The mark [3] stands for this setting: dose: 50.0 mg/kg/injection, schedule: Q01DX009 (ip), vehicle: saline with Tween-80.
The mark [4] stands for this setting: dose: 100.0 mg/kg/injection, schedule: Q01DX009 (ip), vehicle: saline with Tween-80.
[5] abbreviates: dose: 100.0 mg/kg/injection, schedule: Q04DX003 (ip), vehicle: saline with Tween-80.
The mark [6] stands for this setting: dose: 400.0 mg/kg/injection, schedule: Q04DX003 (ip), vehicle: saline with Tween-80.
Setting [7] is: dose: 50.0 mg/kg/injection, schedule: Q04DX003 (ip), vehicle: saline.
Setting [8] is: dose: 200.0 mg/kg/injection, schedule: Q04DX003 (ip), vehicle: saline with Tween-80.
Where [9] appears, read: dose: 25.0 mg/kg/injection, schedule: Q01DX009 (ip), vehicle: saline with Tween-80.
Where [10] appears, read: dose: 25.0 mg/kg/injection, schedule: Q01DX009 (ip), vehicle: saline.
Setting [11] is: dose: 100.0 mg/kg/injection, schedule: Q01DX009 (ip), vehicle: Klucel (hydroxypropylcellulose) (HPC).

`CCC(c1ccc2cc(OC)ccc2c1)C(C(=O)O)C(=O)O` (stereo unspecified): the survivor count is 6 of 6 (dose: 100.0 mg/kg/injection, schedule: Q04DX003 (ip), vehicle: Klucel (hydroxypropylcellulose) (HPC)) and 6 of 6 under setting [1].

`Cn1c(Cc2ccccc2)c([N+](=O)[O-])c(=O)n(C)c1=O`: the survivor count under setting [2] was 2 of 6.

Consider `CC(C)(C)OC(=O)NOc1ccc([N+](=O)[O-])cc1[N+](=O)[O-]`, for which the survivor count is listed as 4 of 6 under setting [3], 0 of 6 under setting [4] and 4 of 6 under setting [5].

As for `CC1(C)O[C@@H]2C[C@H]3[C@@H]4CCC5=CC(=O)C=C[C@]5(C)[C@@]4(F)[C@@H](O)C[C@]3(C)[C@]2(C(=O)CO)O1`, the survivor count was 6 of 6 under setting [4], 4 of 6 under setting [2] and 6 of 6 under setting [6].

Consider `CSc1nc([N+](=O)[O-])c2cnccn12`, for which the survivor count reads like this: under setting [3], 2 of 6; under setting [5], 1 of 6.

Consider `Cc1ccc(S(=O)(=O)N(C)SCl)cc1` (tested in a mixture with another compound), for which the T/C by setting is: (dose: 50.0 mg/kg/injection, schedule: Q01DX009 (ip), vehicle: other) 125 % of control; (dose: 200.0 mg/kg/injection, schedule: Q01DX009 (ip), vehicle: other) 131 % of control.

Turning to `O=C(O)/C(=C/c1ccc(Cl)cc1)c1ccccc1`, the survivor count (dose: 400.0 mg/kg/injection, schedule: Q01DX009 (ip), vehicle: saline with Tween-80) is listed as 3 of 6.

`CC(=O)CC(C)=O.CC(=O)CC(C)=O.O.O.[Ni]`: the T/C under setting [7] is 126 % of control. In addition, the survivor count is reported as 0 of 6 under setting [5], 0 of 6 under setting [8] and 0 of 6 under setting [6].

On to `CC1=CC(C(O)C(C)C)C(C)(Cc2ccc(C)cn2)NC1c1ccccc1` (stereo unspecified), for which the survivor count under setting [5] is 0 of 6, the survivor count under setting [8] was 0 of 6 and the survivor count under setting [6] was 0 of 6.

As to `C=COCC(C)C` (tested in a mixture with another compound), the survivor count is 4 of 6 (dose: 3.12 mg/kg/injection, schedule: Q01DX009 (ip), vehicle: Klucel (hydroxypropylcellulose) (HPC)); 0 of 6 (dose: 6.25 mg/kg/injection, schedule: Q01DX009 (ip), vehicle: Klucel (hydroxypropylcellulose) (HPC)); 3 of 6 (dose: 35.0 mg/kg/injection, schedule: Q01DX009 (ip), vehicle: saline with Tween-80).

Regarding `C/C(=C\Cl)CN(C)C`, the survivor count by setting is: (dose: 225.0 mg/kg/injection, schedule: Q04DX003 (ip), vehicle: saline) 3 of 6; (dose: 335.0 mg/kg/injection, schedule: Q01DX009 (ip), vehicle: saline) 6 of 6.

For the molecule `O=C1C=C(O/C=C/C(C(F)(F)F)C(F)(F)F)C(=O)c2ccccc21`, the T/C under setting [9] is 127 % of control and the T/C under setting [3] was 145 % of control [5 of 6 alive].

For `CC1CN1P(=S)(Oc1ccccc1)N1CC1C` (stereo unspecified), the T/C (dose: 132.0 mg/kg/injection, schedule: Q01DX009 (ip), vehicle: saline with Tween-80) is 125 % of control. In addition, under “dose: 600.0 mg/kg/injection, schedule: Q01DX009 (ip), vehicle: saline with Tween-80”, the survivor count is 1 of 6.

In the case of `COc1ccc2c(c1OC)C(=O)NC2=O`, the survivor count (dose: 200.0 mg/kg/injection, schedule: Q01DX008 (ip), vehicle: Klucel (hydroxypropylcellulose) (HPC)) is 6 of 6.

Take `COc1ccc(C=O)cc1OCc1ccccc1`: the T/C (dose: 25.0 mg/kg/injection, schedule: Q01DX009 (ip), vehicle: water) is 126 % of control. In addition, the survivor count is listed as 6 of 6 (dose: 50.0 mg/kg/injection, schedule: Q01DX009 (ip), vehicle: water); 6 of 6 (dose: 100.0 mg/kg/injection, schedule: Q01DX009 (ip), vehicle: water); 6 of 6 (dose: 200.0 mg/kg/injection, schedule: Q01DX009 (ip), vehicle: water); 6 of 6 (dose: 400.0 mg/kg/injection, schedule: Q01DX009 (ip), vehicle: water); 3 of 6 (dose: 400.0 mg/kg/injection, schedule: Q04DX003 (ip), vehicle: water).

As for `NC(=O)Oc1cc(OC(N)=O)cc(N(CCCl)CCCl)c1`, the T/C under setting [4] is 126 % of control. In addition, the survivor count was 6 of 6 (dose: 200.0 mg/kg/injection, schedule: Q04DX003 (ip), vehicle: other) and 6 of 6 (dose: 400.0 mg/kg/injection, schedule: Q04DX003 (ip), vehicle: other).

Consider `NC(CSC(c1ccccc1)(c1ccccc1)c1ccc2ccccc2c1)C(=O)O` (stereo unspecified), for which the T/C runs as follows: (dose: 0.52 mg/kg/injection, schedule: Q01DX009 (ip), vehicle: saline) 144 % of control; (dose: 0.79 mg/kg/injection, schedule: Q01DX009 (ip), vehicle: saline) 137 % of control. Further, the survivor count is reported as 0 of 6 (dose: 1.2 mg/kg/injection, schedule: Q01DX009 (ip), vehicle: saline); 0 of 6 (dose: 1.8 mg/kg/injection, schedule: Q01DX009 (ip), vehicle: saline); 6 of 6 under setting [10]; 5 of 6 (dose: 50.0 mg/kg/injection, schedule: Q01DX009 (ip), vehicle: saline); 6 of 6 (dose: 66.0 mg/kg/injection, schedule: Q04DX003 (ip), vehicle: saline); 5 of 6 under setting [11]. Also, the survivor count (dose: 100.0 mg/kg/injection, schedule: Q01DX009 (ip), vehicle: saline) is reported as 3 of 6; the survivor count (dose: 100.0 mg/kg/injection, schedule: Q04DX003 (ip), vehicle: saline) is on record as 4 of 6; the survivor count (dose: 150.0 mg/kg/injection, schedule: Q04DX003 (ip), vehicle: saline) was 4 of 6 and 5 of 6; the survivor count (dose: 200.0 mg/kg/injection, schedule: Q01DX009 (ip), vehicle: saline) was 1 of 6; the survivor count under setting [1] is recorded as 4 of 6.

Regarding `ClC1=C(Cl)C(Cl)(C2(Cl)C(Cl)=C(Cl)C(Cl)=C2Cl)C(Cl)=C1Cl`, the survivor count was 3 of 6 (dose: 200.0 mg/kg/injection, schedule: Q01DX009 (ip), vehicle: gum acacia) and 3 of 6 (dose: 400.0 mg/kg/injection, schedule: Q01DX009 (ip), vehicle: gum acacia).

As to `O=C1NC(c2ccccc2)N=C2Oc3ccccc3C=C12` (stereo unspecified), the survivor count is on record as 5 of 6 under setting [9], 3 of 6 under setting [3] and 2 of 6 under setting [4].

With `Nc1cc(N)cc([N+](=O)[O-])c1`, the survivor count reads like this: under setting [10], 5 of 6; under setting [7], 3 of 6.

`NC(Cn1cc(N(CCCl)CCCl)c(=O)[nH]c1=O)C(=O)O` (stereo unspecified): the survivor count (dose: 48.0 mg/kg/injection, schedule: Q01DX009 (ip), vehicle: saline) was 6 of 6.

For the molecule `CCOC(=O)c1c[nH]c2c(OC)cccc2c1=O`, the survivor count under setting [6] is 2 of 6.

With `CN(C)c1ccc(/C=C2\C=Cc3ccccc32)cc1F`, the T/C (dose: 100.0 mg/kg/injection, schedule: Q04DX003 (ip), vehicle: saline sonified) was 130 % of control.

With `O=C1/C(=C/c2cccc([N+](=O)[O-])c2)CCc2ccccc21`, the survivor count by setting is: under setting [11], 6 of 6; (dose: 200.0 mg/kg/injection, schedule: Q01DX009 (ip), vehicle: Klucel (hydroxypropylcellulose) (HPC)) 6 of 6.

For `COc1ccc(OC)c(C(=O)C[n+]2ccccc2)c1`, for the setting “dose: 12.5 mg/kg/injection, schedule: Q01DX009 (ip), vehicle: saline with Tween-80”, the survivor count is recorded as 6 of 6.
